The assay relates to L1210 leukemia ip in BDF1 mice, survival T/C. Briefly: NCI In Vivo Anticancer Drug Screen. Data for tumor model L1210 Leukemia (intraperitoneal) in B6D2F1 (BDF1) mice. The note with it: T/C endpoint: mean survival time, higher T/C = longer survival.
Setting [1] is: dose: 25.0 mg/kg/injection, schedule: Q01DX001 (ip), vehicle: saline.

The structures appear in SMILES notation. The list shows only some results of the screen, not a fair sample: it gathers some chemical classes. Other doses and runs of a compound may be missing. T/C is the treated group as % of the vehicle group. Where survival is the endpoint, the PubChem record calls one and a half times the control and up active, and a quarter to a half above the control has no call in these data; cut-offs in other NCI protocols can differ. Some entries show no survivor count and are marked so; the dose need not have been tolerated. Schedules are NCI's codes, read here as Q, the interval in days (D) or hours (H), X, the number of doses. Some entries were tested several times; their values stand side by side, smallest first. Marks such as (2×) stand for listed records that agree. Some schedules carry Z or #; the key to these is not given.

With `BrCCN(CCBr)CCCN(CCBr)CCBr`, the T/C is 100 [survivor count not shown] (2×) and 107 % of control [survivor count not shown] (dose: 0.02 mg/kg/injection, schedule: Q01DX009 (ip), vehicle: saline); 97 [survivor count not shown], 102 [survivor count not shown], 113 % of control [survivor count not shown] (dose: 0.03 mg/kg/injection, schedule: Q01DX009 (ip), vehicle: saline); 115 [survivor count not shown], 120 [survivor count not shown], 131 % of control [survivor count not shown] (dose: 0.06 mg/kg/injection, schedule: Q01DX009 (ip), vehicle: saline); 112 % of control [survivor count not shown] (dose: 0.25 mg/kg/injection, schedule: Q01DX015 (ip), vehicle: other); 119 % of control [survivor count not shown] (dose: 0.5 mg/kg/injection, schedule: Q01DX015 (ip), vehicle: other); 120 % of control [survivor count not shown] (dose: 0.5 mg/kg/injection, schedule: Q04DX003 (ip), vehicle: saline). Besides, the T/C (dose: 1.0 mg/kg/injection, schedule: Q01DX015 (ip), vehicle: other) is 130 % of control [survivor count not shown]; the T/C (dose: 2.0 mg/kg/injection, schedule: Q01DX015 (ip), vehicle: other) was 151 % of control [survivor count not shown]; the T/C (dose: 2.6 mg/kg/injection, schedule: Q01DX015 (ip), vehicle: saline) was 118 % of control [survivor count not shown]; the T/C (dose: 4.0 mg/kg/injection, schedule: Q01DX015 (ip), vehicle: saline) was 138 % of control [survivor count not shown]; the T/C (dose: 5.2 mg/kg/injection, schedule: Q01DX001 (ip), vehicle: other) was 123 % of control [survivor count not shown]; the T/C (dose: 5.5 mg/kg/injection, schedule: Q01DX001 (ip), vehicle: saline) was 126 % of control [survivor count not shown]. Moreover, the T/C runs as follows: (dose: 6.0 mg/kg/injection, schedule: Q01DX015 (ip), vehicle: saline) 144 % of control [survivor count not shown]; (dose: 8.0 mg/kg/injection, schedule: Q01DX001 (ip), vehicle: other) 143 % of control [survivor count not shown]; (dose: 8.3 mg/kg/injection, schedule: Q01DX001 (ip), vehicle: saline) 134 % of control [survivor count not shown]; (dose: 9.0 mg/kg/injection, schedule: Q01DX015 (ip), vehicle: saline) 100 % of control [survivor count not shown]; (dose: 12.0 mg/kg/injection, schedule: Q01DX001 (ip), vehicle: other) 125 % of control [survivor count not shown]; (dose: 12.5 mg/kg/injection, schedule: Q01DX001 (ip), vehicle: saline) 126 [survivor count not shown] and 146 % of control [survivor count not shown]. Besides, the T/C reads like this: (dose: 18.0 mg/kg/injection, schedule: Q01DX001 (ip), vehicle: other) 141 % of control [survivor count not shown]; under setting [1], 93 % of control [survivor count not shown]; (dose: 15.6 micrograms/kg/injection, schedule: Q04DX003 (ip), vehicle: saline) 118 % of control [survivor count not shown]; (dose: 31.2 micrograms/kg/injection, schedule: Q04DX003 (ip), vehicle: saline) 107 % of control [survivor count not shown]; (dose: 62.5 micrograms/kg/injection, schedule: Q04DX003 (ip), vehicle: saline) 103 % of control [survivor count not shown]; (dose: 125.0 micrograms/kg/injection, schedule: Q04DX003 (ip), vehicle: saline) 108 % of control [survivor count not shown]. The T/C runs as follows: (dose: 250.0 micrograms/kg/injection, schedule: Q04DX003 (ip), vehicle: saline) 102 % of control [survivor count not shown]; (dose: 500.0 micrograms/kg/injection, schedule: Q04DX003 (ip), vehicle: saline) 121 % of control [survivor count not shown].
On to `O=C(O)/C(O)=C/c1ccc(N(CCF)CCCl)cc1`, for which the T/C under setting [1] was 107 % of control [survivor count not shown]; the T/C (dose: 25.0 mg/kg/injection, schedule: Q04DX003 (ip), vehicle: acetone) was 103 % of control [survivor count not shown]; the T/C (dose: 50.0 mg/kg/injection, schedule: Q01DX001 (ip), vehicle: saline) was 105 % of control [survivor count not shown]; the T/C (dose: 50.0 mg/kg/injection, schedule: Q04DX003 (ip), vehicle: acetone) was 111 % of control [survivor count not shown]; the T/C (dose: 66.0 mg/kg/injection, schedule: Q04DX003 (ip), vehicle: saline) was 105 % of control [survivor count not shown]; the T/C (dose: 100.0 mg/kg/injection, schedule: Q04DX003 (ip), vehicle: acetone) was 127 % of control [survivor count not shown]. In addition, the T/C is 104 % of control [survivor count not shown] (dose: 100.0 mg/kg/injection, schedule: Q04DX003 (ip), vehicle: saline) and 115 % of control [survivor count not shown] (dose: 150.0 mg/kg/injection, schedule: Q04DX003 (ip), vehicle: saline).
Take `CCOc1ccccc1N(CCCl)CCCl`: the T/C is, setting by setting: (dose: 4.0 mg/kg/injection, schedule: Q01DX Z (ip), vehicle: methylcellulose (MC)) 102 % of control [survivor count not shown]; (dose: 6.0 mg/kg/injection, schedule: Q01DX Z (ip), vehicle: methylcellulose (MC)) 111 % of control [survivor count not shown]; (dose: 9.0 mg/kg/injection, schedule: Q01DX Z (ip), vehicle: methylcellulose (MC)) 111 % of control [survivor count not shown].
For the molecule `O=c1cnn(CN(CCCl)CCCl)c(=O)[nH]1`, the T/C (dose: 0.37 mg/kg/injection, schedule: Q04DX002 (ip), vehicle: saline) is 152 % of control [survivor count not shown]; the T/C (dose: 0.75 mg/kg/injection, schedule: Q04DX002 (ip), vehicle: saline) was 134 % of control [survivor count not shown]; the T/C (dose: 1.5 mg/kg/injection, schedule: Q04DX002 (ip), vehicle: saline) was 160 % of control [survivor count not shown]; the T/C (dose: 3.1 mg/kg/injection, schedule: Q04DX002 (ip), vehicle: saline) is 100 % of control [survivor count not shown].
With `O=C(O)CCCCc1ccc(N(CCCl)CCCl)cc1`, the T/C (dose: 25.0 mg/kg/injection, schedule: Q01DX015 (ip), vehicle: carboxymethylcellulose (CMC)) is 121 % of control [survivor count not shown]; the T/C (dose: 25.0 mg/kg/injection, schedule: Q04DX003 (ip), vehicle: saline with Tween-80) was 102 % of control [survivor count not shown]; the T/C (dose: 50.0 mg/kg/injection, schedule: Q01DX015 (ip), vehicle: carboxymethylcellulose (CMC)) is 122 % of control [survivor count not shown]; the T/C (dose: 50.0 mg/kg/injection, schedule: Q04DX003 (ip), vehicle: saline with Tween-80) was 109 % of control [survivor count not shown].

These data come from PubChem BioAssay AID248 (DTP/NCI, 2004).
